{
  "source": "patent US9926581B2",
  "about": "“Fagopyritol synthase genes and uses thereof” (Cornell Research Foundation, Inc., priority 2002, dated 2018)",
  "tested_on": "soybean explants",
  "assay": "Soybean explant feeding 3 days with 50 mM cyclitol in 1% sucrose, slow drying time course, soluble carbohydrates in axis, cotyledon, seed coat and leaf",
  "key": {"[1]": {"conditions": "3 days transport of sucrose (1%) and D-pinitol (50 mM), after 4 days slow drying, Rep 2"}, "[2]": {"conditions": "3 days transport of sucrose (1%) and D-pinitol (50 mM), after 14 days slow drying, Rep 1"}, "[3]": {"conditions": "3 days transport of sucrose (1%) and D-pinitol (50 mM), after 14 days slow drying, Rep 2"}, "[4]": {"conditions": "3 days transport of sucrose (1%) and D-pinitol (50 mM), before slow drying, Rep 1"}, "[5]": {"conditions": "3 days transport of sucrose (1%) and D-pinitol (50 mM), before slow drying, Rep 2"}, "[6]": {"conditions": "3 days transport of sucrose (1%) and myo-inositol (50 mM), after 2 days slow drying, Rep 1"}, "[7]": {"conditions": "3 days transport of sucrose (1%) and myo-inositol (50 mM), after 2 days slow drying, Rep 2"}, "[8]": {"conditions": "3 days transport of sucrose (1%) and myo-inositol (50 mM), after 4 days slow drying, Rep 1"}, "[9]": {"conditions": "3 days transport of sucrose (1%) and myo-inositol (50 mM), after 4 days slow drying, Rep 2"}, "[10]": {"conditions": "3 days transport of sucrose (1%) and myo-inositol (50 mM), after 14 days slow drying, Rep 1"}, "[11]": {"conditions": "3 days transport of sucrose (1%) and myo-inositol (50 mM), after 14 days slow drying, Rep 2"}, "[12]": {"conditions": "3 days transport of sucrose (1%) and myo-inositol (50 mM), before slow drying, Rep 1"}, "[13]": {"conditions": "3 days transport of sucrose (1%) and myo-inositol (50 mM), before slow drying, Rep 2"}, "[14]": {"conditions": "3 days transport of sucrose (1%) without cyclitols, after 2 days slow drying, Rep 1"}, "[15]": {"conditions": "3 days transport of sucrose (1%) without cyclitols, after 2 days slow drying, Rep 2"}, "[16]": {"conditions": "3 days transport of sucrose (1%) without cyclitols, after 4 days slow drying, Rep 1"}, "[17]": {"conditions": "3 days transport of sucrose (1%) without cyclitols, after 4 days slow drying, Rep 2"}, "[18]": {"conditions": "3 days transport of sucrose (1%) without cyclitols, after 14 days slow drying, Rep 1"}, "[19]": {"conditions": "3 days transport of sucrose (1%) without cyclitols, after 14 days slow drying, Rep 2"}, "[20]": {"conditions": "3 days transport of sucrose (1%) without cyclitols, before slow drying, Rep 1"}, "[21]": {"conditions": "3 days transport of sucrose (1%) without cyclitols, before slow drying, Rep 2"}},
  "data": [
    {"smiles": "OCC1O[C@H](OCC2O[C@H](OC3C(O)[C@H](O)C(O)[C@H](O)[C@@H]3O)C(O)[C@H](O)[C@H]2O)C(O)[C@H](O)[C@H]1O", "note": "(stereo partly drawn) [α-D-galactopyranosyl-(1→6)-α-D-galactopyranosyl-(1→2)-1D-chiro-inositol]", "values": [
      {"measurement": "Accumulation of soluble carbohydrates in soybean axis", "setting": "[1]", "result": 0, "unit": "μg/axis"},
      {"measurement": "Accumulation of soluble carbohydrates in soybean cotyledon", "setting": "[1]", "result": 11.92, "unit": "μg/cotyledon"},
      {"measurement": "Accumulation of soluble carbohydrates in soybean seed coat", "setting": "[1]", "result": 0, "unit": "μg/seed coat"},
      {"measurement": "Accumulation of soluble carbohydrates in soybean axis", "setting": "[2]", "result": 0, "unit": "μg/axis"},
      {"measurement": "Accumulation of soluble carbohydrates in soybean cotyledon", "setting": "[2]", "result": 1.77, "unit": "μg/cotyledon"},
      {"measurement": "Accumulation of soluble carbohydrates in soybean seed coat", "setting": "[2]", "result": 0, "unit": "μg/seed coat"},
      {"measurement": "Accumulation of soluble carbohydrates in soybean axis", "setting": "[3]", "result": 1.26, "unit": "μg/axis"},
      {"measurement": "Accumulation of soluble carbohydrates in soybean cotyledon", "setting": "[3]", "result": 0, "unit": "μg/cotyledon"},
      {"measurement": "Accumulation of soluble carbohydrates in soybean seed coat", "setting": "[3]", "result": 0, "unit": "μg/seed coat"},
      {"measurement": "Accumulation of soluble carbohydrates in soybean axis", "setting": "[4]", "result": 0, "unit": "μg/axis"},
      {"measurement": "Accumulation of soluble carbohydrates in soybean cotyledon", "setting": "[4]", "result": 0, "unit": "μg/cotyledon"},
      {"measurement": "Accumulation of soluble carbohydrates in soybean axis", "setting": "[5]", "result": 0, "unit": "μg/axis"},
      {"measurement": "Accumulation of soluble carbohydrates in soybean cotyledon", "setting": "[5]", "result": 0, "unit": "μg/cotyledon"},
      {"measurement": "Accumulation of soluble carbohydrates in soybean axis", "setting": "[6]", "result": 0, "unit": "μg/axis"},
      {"measurement": "Accumulation of soluble carbohydrates in soybean cotyledons", "setting": "[6]", "result": 0, "unit": "μg/cotyledon"},
      {"measurement": "Accumulation of soluble carbohydrates in soybean seed coats", "setting": "[6]", "result": 0, "unit": "μg/seed coat"},
      {"measurement": "Accumulation of soluble carbohydrates in soybean axis", "setting": "[7]", "result": 0, "unit": "μg/axis"},
      {"measurement": "Accumulation of soluble carbohydrates in soybean cotyledons", "setting": "[7]", "result": 0, "unit": "μg/cotyledon"},
      {"measurement": "Accumulation of soluble carbohydrates in soybean seed coats", "setting": "[7]", "result": 0, "unit": "μg/seed coat"},
      {"measurement": "Accumulation of soluble carbohydrates in soybean axis", "setting": "[8]", "result": 0, "unit": "μg/axis"},
      {"measurement": "Accumulation of soluble carbohydrates in soybean cotyledons", "setting": "[8]", "result": 0, "unit": "μg/cotyledon"},
      {"measurement": "Accumulation of soluble carbohydrates in soybean axis", "setting": "[9]", "result": 0, "unit": "μg/axis"},
      {"measurement": "Accumulation of soluble carbohydrates in soybean cotyledons", "setting": "[9]", "result": 0, "unit": "μg/cotyledon"},
      {"measurement": "Accumulation of soluble carbohydrates in soybean seed coats", "setting": "[9]", "result": 0, "unit": "μg/seed coat"},
      {"measurement": "Accumulation of soluble carbohydrates in soybean axis", "setting": "[10]", "result": 0, "unit": "μg/axis"},
      {"measurement": "Accumulation of soluble carbohydrates in soybean cotyledons", "setting": "[10]", "result": 1.29, "unit": "μg/cotyledon"},
      {"measurement": "Accumulation of soluble carbohydrates in soybean seed coats", "setting": "[10]", "result": 0, "unit": "μg/seed coat"},
      {"measurement": "Accumulation of soluble carbohydrates in soybean axis", "setting": "[11]", "result": 0, "unit": "μg/axis"},
      {"measurement": "Accumulation of soluble carbohydrates in soybean cotyledons", "setting": "[11]", "result": 5.27, "unit": "μg/cotyledon"},
      {"measurement": "Accumulation of soluble carbohydrates in soybean seed coats", "setting": "[11]", "result": 0, "unit": "μg/seed coat"},
      {"measurement": "Accumulation of soluble carbohydrates in soybean axis", "setting": "[12]", "result": 0, "unit": "μg/axis"},
      {"measurement": "Accumulation of soluble carbohydrates in soybean cotyledons", "setting": "[12]", "result": 0, "unit": "μg/cotyledon"},
      {"measurement": "Accumulation of soluble carbohydrates in soybean axis", "setting": "[13]", "result": 0, "unit": "μg/axis"},
      {"measurement": "Accumulation of soluble carbohydrates in soybean cotyledons", "setting": "[13]", "result": 0, "unit": "μg/cotyledon"},
      {"measurement": "Accumulation of soluble carbohydrates in soybean axis", "setting": "[14]", "result": 5.67, "unit": "μg/axis"},
      {"measurement": "Accumulation of soluble carbohydrates in soybean cotyledon", "setting": "[14]", "result": 2.69, "unit": "μg/cotyledon"},
      {"measurement": "Accumulation of soluble carbohydrates in soybean seed coats", "setting": "[14]", "result": 0, "unit": "μg/seed coat"},
      {"measurement": "Accumulation of soluble carbohydrates in soybean axis", "setting": "[15]", "result": 0, "unit": "μg/axis"},
      {"measurement": "Accumulation of soluble carbohydrates in soybean cotyledon", "setting": "[15]", "result": 0, "unit": "μg/cotyledon"},
      {"measurement": "Accumulation of soluble carbohydrates in soybean seed coats", "setting": "[15]", "result": 0, "unit": "μg/seed coat"},
      {"measurement": "Accumulation of soluble carbohydrates in soybean axis", "setting": "[16]", "result": 0, "unit": "μg/axis"},
      {"measurement": "Accumulation of soluble carbohydrates in soybean cotyledon", "setting": "[16]", "result": 11.94, "unit": "μg/cotyledon"},
      {"measurement": "Accumulation of soluble carbohydrates in soybean seed coats", "setting": "[16]", "result": 0, "unit": "μg/seed coat"},
      {"measurement": "Accumulation of soluble carbohydrates in soybean axis", "setting": "[17]", "result": 0, "unit": "μg/axis"},
      {"measurement": "Accumulation of soluble carbohydrates in soybean cotyledon", "setting": "[17]", "result": 2.08, "unit": "μg/cotyledon"},
      {"measurement": "Accumulation of soluble carbohydrates in soybean seed coats", "setting": "[17]", "result": 0, "unit": "μg/seed coat"},
      {"measurement": "Accumulation of soluble carbohydrates in soybean axis", "setting": "[18]", "result": 0, "unit": "μg/axis"},
      {"measurement": "Accumulation of soluble carbohydrates in soybean cotyledon", "setting": "[18]", "result": 4.52, "unit": "μg/cotyledon"},
      {"measurement": "Accumulation of soluble carbohydrates in soybean seed coats", "setting": "[18]", "result": 0, "unit": "μg/seed coat"},
      {"measurement": "Accumulation of soluble carbohydrates in soybean axis", "setting": "[19]", "result": 0, "unit": "μg/axis"},
      {"measurement": "Accumulation of soluble carbohydrates in soybean cotyledon", "setting": "[19]", "result": 4.65, "unit": "μg/cotyledon"},
      {"measurement": "Accumulation of soluble carbohydrates in soybean seed coats", "setting": "[19]", "result": 0, "unit": "μg/seed coat"},
      {"measurement": "Accumulation of soluble carbohydrates in soybean axis", "setting": "[20]", "result": 0, "unit": "μg/axis"},
      {"measurement": "Accumulation of soluble carbohydrates in soybean cotyledon", "setting": "[20]", "result": 0, "unit": "μg/cotyledon"},
      {"measurement": "Accumulation of soluble carbohydrates in soybean axis", "setting": "[21]", "result": 0, "unit": "μg/axis"},
      {"measurement": "Accumulation of soluble carbohydrates in soybean cotyledon", "setting": "[21]", "result": 0, "unit": "μg/cotyledon"}
    ]}
  ]
}
